Data on one molecule can be found in paper PMC5780496.

In one assay the target is HACE1 MID region alone. Kind of assay: co-IP; MCF12A cells 20 hours post-transfection, lysed in 50 mM Tris-HCl pH 7.5, 150 mM NaCl, 1% Triton-X100, 0.27 M sucrose; anti-HA or anti-Flag affinity gel, 2 hours at 4 °C; immunoblot; in some samples active PAK1(K141A) co-expressed. (In general: A western blot detects proteins with antibodies after separation by electrophoresis.)

In the next assay the target is HACE1 ANK domain alone. The description is as above.

No constants are given. Whether binding was seen depends on the method and setting. Binding seen in cells or lysates may run through a third protein.

B1: HACE1 HECT domain alone (domain or fragment, UniProt Q8IYU2 574-909)
chain: NCAKLKQGIAVRFHGEEGMGQGVVREWFDILSNEIVNPDYALFTQSADGTTFQPNSNSYVNPDHLNYFRFAGQILGLALNHRQLVNIYFTRSFYKHILGIPVNYQDVASIDPEYAKNLQWILDNDISDLGLELTFSVETDVFGAMEEVPLKPGGGSILVTQNNKAEYVQLVTELRMTRAIQPQINAFLQGFHMFIPPSLIQLFDEYELELLLSGMPEIDVSDWIKNTEYTSGYEREDPVIQWFWEVVEDITQEERVLLLQFVTGSSRVPHGGFANIMGGSGLQNFTIAAVPYTPNLLPTSSTCINMLKLPEYPSKEILKDRLLVALHCGSYGYTMA
For B1, the binding result in the assay with HACE1 MID region alone and with HACE1 ANK domain alone was “no binding” in each case.
